PubChem BioAssay AID1224830 | NIAID, 2016
Aim: 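Genes whose knock-down alters the TNF-alpha reporter response to LPS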 (primary screen). System: human THP-1 monocytic leukaemia cells, TNF dual-luciferase reporter clone, PMA-differentiated to macrophage-like cells. Reagents: siRNA pool against human genes, 50 nM. Time to read-out: LPS for 4 h, given about 3 days after siRNA transfection. Conditions: bacterial LPS (TLR4 ligand), 10 ng/ml. Read-out: 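Ratio of firefly to renilla light, scaled to the plate median and expressed as a robust z-score per replicate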. Scale: TNF reporter robust z-score: higher = stronger TNF reporter response to LPS. Call rule: 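Each well counts as active if its z-score is over 2.8 or under -1.5; controls are left without a call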.
The deposit covers about 18,000 reagents; below is a random part of them. Over the whole deposit, about 2,900 (16%) got an active call. 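Calls are made per well; low scores hint the gene aids the LPS response, high scores that it dampens it.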 Unmarked entries are inactive. Repeated entries: four replicate wells of each siRNA pool.

gene,TNF reporter robust z-score
TAS2R38,-0.26
TAS2R38,-0.37
TAS2R38,-0.58
TAS2R38,-0.86
UBXN2B,0.2
UBXN2B,-0.87
UBXN2B,-0.95
UBXN2B,-0.79
TPT1,-0.15
TPT1,0.34
TPT1,-0.51
TPT1,-0.12
DACT2,-0.08
DACT2,-1.19
DACT2,-1.2
DACT2,-0.72
STX18,-0.52
STX18,-0.34
STX18,-1.48
STX18,-1.3
PTGES,0.6
PTGES,7.93 (active)
PTGES,0.58
PTGES,2.21
OR10V1,-0.62
OR10V1,-0.46
OR10V1,-0.86
OR10V1,-0.83
ANKRD6,-1.03
ANKRD6,-1.42
ANKRD6,-0.75
ANKRD6,-0.68
RAN,-0.3
RAN,0.3
RAN,-0.72
RAN,1.11
NUDT6,2.76
NUDT6,2.24
NUDT6,0.17
NUDT6,2.62
TK2,2.04
TK2,1.52
TK2,1.9
TK2,-0.06
OR8U1,0.03
OR8U1,0.4
OR8U1,0.42
OR8U1,-0.06

Not a retest: an excerpt of the list.
gene,TNF reporter robust z-score
UBXN2B,-0.95
UBXN2B,-0.79
TPT1,-0.15
TPT1,0.34
TPT1,-0.51
